Measured values: the supplement of paper PMC11006884
The list shows a part of the results, in another mix than the full data. Single values of this set are uncertain.

Amino acid sequences for entries named in this document (tags omitted). A change or cut given only in a name is not applied to a line headed by its entry.
UniProt P05386, whole entry, looked up: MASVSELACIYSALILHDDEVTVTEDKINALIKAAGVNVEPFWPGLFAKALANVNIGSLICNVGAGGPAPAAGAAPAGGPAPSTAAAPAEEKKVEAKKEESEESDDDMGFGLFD
UniProt P06733, whole entry, looked up: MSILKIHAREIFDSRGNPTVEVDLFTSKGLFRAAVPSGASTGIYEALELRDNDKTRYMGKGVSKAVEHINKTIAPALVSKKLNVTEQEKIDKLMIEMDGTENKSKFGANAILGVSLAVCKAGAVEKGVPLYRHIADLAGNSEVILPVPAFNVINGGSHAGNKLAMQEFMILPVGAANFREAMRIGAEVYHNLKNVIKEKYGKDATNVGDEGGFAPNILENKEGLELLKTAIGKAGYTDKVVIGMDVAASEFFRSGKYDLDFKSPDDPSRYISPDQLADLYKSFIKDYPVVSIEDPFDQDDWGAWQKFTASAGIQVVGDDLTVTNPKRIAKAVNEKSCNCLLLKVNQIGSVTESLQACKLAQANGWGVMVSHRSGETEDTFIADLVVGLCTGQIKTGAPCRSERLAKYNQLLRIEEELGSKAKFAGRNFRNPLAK
UniProt O95155, whole entry, looked up: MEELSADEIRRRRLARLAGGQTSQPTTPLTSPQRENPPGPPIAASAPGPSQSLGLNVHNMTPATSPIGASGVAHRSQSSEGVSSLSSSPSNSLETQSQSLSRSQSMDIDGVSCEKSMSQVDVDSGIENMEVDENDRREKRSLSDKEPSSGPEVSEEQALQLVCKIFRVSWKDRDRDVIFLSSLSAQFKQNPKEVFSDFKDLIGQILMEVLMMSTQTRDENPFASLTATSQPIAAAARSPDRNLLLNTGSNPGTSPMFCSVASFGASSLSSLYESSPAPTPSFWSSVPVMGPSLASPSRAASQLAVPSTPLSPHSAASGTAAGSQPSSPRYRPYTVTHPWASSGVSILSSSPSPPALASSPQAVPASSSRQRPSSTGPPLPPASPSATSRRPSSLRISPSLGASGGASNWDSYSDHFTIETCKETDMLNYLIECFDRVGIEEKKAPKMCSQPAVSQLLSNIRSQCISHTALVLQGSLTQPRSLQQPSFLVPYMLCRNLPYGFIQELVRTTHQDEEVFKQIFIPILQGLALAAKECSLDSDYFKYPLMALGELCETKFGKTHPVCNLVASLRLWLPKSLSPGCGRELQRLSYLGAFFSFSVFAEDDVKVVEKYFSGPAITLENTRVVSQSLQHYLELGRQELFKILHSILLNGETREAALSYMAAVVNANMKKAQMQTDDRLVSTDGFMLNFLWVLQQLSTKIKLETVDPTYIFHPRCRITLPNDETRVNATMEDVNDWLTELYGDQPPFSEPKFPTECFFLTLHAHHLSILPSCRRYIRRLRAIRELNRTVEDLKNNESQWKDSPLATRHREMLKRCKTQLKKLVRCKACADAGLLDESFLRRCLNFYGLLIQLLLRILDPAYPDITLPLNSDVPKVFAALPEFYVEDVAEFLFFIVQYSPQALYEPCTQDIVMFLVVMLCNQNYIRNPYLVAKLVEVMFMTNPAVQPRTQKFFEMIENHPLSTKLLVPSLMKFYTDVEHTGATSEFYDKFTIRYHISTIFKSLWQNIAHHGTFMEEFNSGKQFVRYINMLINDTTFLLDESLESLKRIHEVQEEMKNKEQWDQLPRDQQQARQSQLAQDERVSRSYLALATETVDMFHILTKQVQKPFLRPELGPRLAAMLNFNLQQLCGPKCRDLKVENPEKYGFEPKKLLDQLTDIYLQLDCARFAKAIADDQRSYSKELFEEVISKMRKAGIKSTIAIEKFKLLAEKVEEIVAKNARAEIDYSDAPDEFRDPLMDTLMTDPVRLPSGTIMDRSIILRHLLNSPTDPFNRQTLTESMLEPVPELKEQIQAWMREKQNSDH
UniProt O95613: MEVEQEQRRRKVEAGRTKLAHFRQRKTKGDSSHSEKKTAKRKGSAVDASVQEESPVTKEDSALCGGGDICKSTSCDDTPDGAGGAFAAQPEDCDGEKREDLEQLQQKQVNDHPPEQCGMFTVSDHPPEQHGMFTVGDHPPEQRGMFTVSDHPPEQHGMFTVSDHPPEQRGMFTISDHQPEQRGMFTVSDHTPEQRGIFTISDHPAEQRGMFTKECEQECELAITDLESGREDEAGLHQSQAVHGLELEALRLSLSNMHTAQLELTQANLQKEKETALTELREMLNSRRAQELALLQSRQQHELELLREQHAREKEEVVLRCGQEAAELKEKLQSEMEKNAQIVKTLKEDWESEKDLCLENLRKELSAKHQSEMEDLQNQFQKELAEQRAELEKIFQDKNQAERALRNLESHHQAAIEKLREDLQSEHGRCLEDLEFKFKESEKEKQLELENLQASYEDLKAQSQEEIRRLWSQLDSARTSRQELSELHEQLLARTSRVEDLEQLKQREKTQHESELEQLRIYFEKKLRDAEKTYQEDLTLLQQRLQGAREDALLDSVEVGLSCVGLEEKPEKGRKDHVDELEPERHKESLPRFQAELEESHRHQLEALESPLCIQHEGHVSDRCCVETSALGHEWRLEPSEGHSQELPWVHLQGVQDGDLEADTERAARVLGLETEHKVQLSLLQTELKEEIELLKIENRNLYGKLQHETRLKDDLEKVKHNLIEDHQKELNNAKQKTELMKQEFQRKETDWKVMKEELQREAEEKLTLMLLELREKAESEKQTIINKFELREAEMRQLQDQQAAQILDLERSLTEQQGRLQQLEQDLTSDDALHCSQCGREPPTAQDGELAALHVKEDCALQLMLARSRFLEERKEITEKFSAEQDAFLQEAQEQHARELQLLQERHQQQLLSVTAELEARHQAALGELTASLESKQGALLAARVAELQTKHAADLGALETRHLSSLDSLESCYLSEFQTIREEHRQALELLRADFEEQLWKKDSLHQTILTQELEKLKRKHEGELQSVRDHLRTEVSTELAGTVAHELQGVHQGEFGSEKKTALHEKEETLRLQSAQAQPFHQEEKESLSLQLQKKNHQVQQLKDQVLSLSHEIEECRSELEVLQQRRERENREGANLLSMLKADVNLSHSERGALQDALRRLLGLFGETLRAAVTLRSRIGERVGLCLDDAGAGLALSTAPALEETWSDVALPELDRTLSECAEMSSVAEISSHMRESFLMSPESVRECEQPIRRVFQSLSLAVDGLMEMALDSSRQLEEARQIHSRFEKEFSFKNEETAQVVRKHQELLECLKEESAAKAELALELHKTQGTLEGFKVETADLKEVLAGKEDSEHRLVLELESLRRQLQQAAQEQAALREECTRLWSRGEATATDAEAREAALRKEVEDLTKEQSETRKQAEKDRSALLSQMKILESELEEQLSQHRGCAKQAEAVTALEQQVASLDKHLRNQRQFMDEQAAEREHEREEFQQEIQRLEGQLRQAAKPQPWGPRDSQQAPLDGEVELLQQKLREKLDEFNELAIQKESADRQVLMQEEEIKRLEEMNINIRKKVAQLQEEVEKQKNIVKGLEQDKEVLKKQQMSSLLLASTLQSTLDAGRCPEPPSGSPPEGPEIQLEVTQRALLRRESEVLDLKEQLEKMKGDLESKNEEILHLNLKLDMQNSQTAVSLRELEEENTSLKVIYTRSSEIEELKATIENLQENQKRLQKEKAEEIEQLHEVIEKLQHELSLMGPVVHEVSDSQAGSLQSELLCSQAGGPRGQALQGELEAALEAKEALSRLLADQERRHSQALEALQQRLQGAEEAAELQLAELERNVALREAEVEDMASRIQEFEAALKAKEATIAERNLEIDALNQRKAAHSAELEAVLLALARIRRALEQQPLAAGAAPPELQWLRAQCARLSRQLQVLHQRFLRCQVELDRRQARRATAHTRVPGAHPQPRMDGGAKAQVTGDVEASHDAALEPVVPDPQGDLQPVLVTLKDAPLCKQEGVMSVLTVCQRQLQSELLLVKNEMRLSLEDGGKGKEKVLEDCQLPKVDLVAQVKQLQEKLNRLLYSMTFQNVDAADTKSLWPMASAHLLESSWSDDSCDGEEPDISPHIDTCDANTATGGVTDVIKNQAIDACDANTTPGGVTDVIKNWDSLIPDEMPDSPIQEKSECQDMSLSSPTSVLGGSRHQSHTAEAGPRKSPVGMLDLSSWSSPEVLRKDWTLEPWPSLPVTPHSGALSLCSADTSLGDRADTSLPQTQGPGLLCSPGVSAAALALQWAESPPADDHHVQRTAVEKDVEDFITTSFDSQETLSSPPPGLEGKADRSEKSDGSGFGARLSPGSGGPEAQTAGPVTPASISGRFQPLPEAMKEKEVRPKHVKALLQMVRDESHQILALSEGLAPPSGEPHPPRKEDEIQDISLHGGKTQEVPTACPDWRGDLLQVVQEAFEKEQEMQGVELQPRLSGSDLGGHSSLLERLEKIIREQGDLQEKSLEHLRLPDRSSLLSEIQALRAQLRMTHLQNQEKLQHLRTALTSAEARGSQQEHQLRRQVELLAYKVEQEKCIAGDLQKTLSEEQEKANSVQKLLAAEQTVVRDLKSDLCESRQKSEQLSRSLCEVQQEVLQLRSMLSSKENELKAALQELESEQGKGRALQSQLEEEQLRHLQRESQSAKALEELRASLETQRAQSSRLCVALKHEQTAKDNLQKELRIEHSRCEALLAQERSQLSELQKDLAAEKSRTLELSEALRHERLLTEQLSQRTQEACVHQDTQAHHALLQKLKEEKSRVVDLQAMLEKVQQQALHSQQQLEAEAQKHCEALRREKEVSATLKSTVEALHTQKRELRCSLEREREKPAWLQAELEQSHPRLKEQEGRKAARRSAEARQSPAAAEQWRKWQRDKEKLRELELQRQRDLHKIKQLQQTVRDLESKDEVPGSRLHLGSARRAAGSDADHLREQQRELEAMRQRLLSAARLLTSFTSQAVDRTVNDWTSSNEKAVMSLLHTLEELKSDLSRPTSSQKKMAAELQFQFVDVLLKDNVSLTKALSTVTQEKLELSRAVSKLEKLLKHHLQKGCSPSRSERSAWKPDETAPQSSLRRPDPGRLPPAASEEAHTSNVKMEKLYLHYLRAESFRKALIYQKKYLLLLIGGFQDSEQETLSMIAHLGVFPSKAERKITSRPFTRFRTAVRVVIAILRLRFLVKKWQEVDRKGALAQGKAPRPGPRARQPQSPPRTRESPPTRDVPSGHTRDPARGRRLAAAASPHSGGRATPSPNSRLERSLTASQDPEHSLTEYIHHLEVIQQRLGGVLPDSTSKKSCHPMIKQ
UniProt P07437, whole entry, looked up: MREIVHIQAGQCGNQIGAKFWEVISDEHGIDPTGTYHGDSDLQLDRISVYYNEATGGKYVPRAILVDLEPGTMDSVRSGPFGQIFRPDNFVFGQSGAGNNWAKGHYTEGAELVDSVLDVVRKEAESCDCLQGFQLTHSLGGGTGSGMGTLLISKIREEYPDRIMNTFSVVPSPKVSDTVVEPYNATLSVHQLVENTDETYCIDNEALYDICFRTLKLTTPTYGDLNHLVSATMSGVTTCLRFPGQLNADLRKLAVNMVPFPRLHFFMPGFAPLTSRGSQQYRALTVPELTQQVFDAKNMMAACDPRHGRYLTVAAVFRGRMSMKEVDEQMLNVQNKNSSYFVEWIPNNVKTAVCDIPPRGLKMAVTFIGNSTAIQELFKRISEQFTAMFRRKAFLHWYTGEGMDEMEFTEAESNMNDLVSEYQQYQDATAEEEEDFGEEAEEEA
UniProt P07203, whole entry, looked up: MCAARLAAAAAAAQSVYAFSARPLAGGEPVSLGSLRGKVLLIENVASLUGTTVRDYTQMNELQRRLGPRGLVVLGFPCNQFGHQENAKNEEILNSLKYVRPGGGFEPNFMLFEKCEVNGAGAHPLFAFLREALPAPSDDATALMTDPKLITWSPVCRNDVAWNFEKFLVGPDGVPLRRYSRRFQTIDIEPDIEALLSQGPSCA
UniProt O95999: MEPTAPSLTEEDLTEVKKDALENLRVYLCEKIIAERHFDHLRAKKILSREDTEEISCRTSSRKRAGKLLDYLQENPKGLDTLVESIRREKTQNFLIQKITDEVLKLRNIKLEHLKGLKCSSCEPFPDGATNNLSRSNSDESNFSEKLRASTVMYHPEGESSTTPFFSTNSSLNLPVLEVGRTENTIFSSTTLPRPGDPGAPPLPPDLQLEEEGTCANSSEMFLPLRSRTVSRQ
UniProt P04406: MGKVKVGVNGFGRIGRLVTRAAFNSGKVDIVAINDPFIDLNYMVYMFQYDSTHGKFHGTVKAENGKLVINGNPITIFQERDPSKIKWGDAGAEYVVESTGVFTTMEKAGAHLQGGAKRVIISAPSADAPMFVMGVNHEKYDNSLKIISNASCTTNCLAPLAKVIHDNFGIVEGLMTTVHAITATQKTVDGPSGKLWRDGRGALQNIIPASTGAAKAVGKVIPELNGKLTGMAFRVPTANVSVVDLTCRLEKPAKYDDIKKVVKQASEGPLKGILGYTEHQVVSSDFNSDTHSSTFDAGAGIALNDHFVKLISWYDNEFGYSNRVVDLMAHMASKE

Compound: COC(=O)/C=C/c1ccccc1 [methyl cinnamate]
Experiment: log2 ratio of iodoacetamide-alkyne labeling of the cysteine site, DMSO over compound (competition); higher = stronger covalent engagement of the cysteine by the compound, active = 1 or more
Details: 500 µM; treatment time 1 h; system: HEK293T cell lysate
How it was run: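 Electrophile (500 µM) or vehicle was added to HEK293T lysate (2 mg/mL) for 1 h at ambient temperature before iodoacetamide alkyne labelling (1 h) and click coupling to sCIP-TMT reagents. After pooling, overnight trypsin digestion at 37 °C, streptavidin enrichment and acid elution, peptides were measured by Orbitrap Eclipse LC-MS/MS with FAIMS and quantified in FragPipe. Each cysteine's log2 competition ratio compares mean control-channel with mean compound-channel reporter intensity, control over compound. Data came from duplicate channels across three replicates, excluding cysteines quantified in only one replicate.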

log2 ratio of iodoacetamide-alkyne labeling, inactive:
GLS C266 (UniProt O94925) -0.0709
UniProt O95696_C937 0.0297
ACTL6A C152 (UniProt O96019) -0.0329
UniProt P00491_C31 0.211
HERC2 C2770 (UniProt O95714) -0.0727
GLS C203 (UniProt O94925) 0.224
SLC25A5 C129 (UniProt P05141) -0.0103
ACSL3 C429 (UniProt O95573) 0.118
RPLP1 C61 (UniProt P05386) 0.229
NR3C1 C367 (UniProt P04150) 0.348
ENO1 C337 (UniProt P06733) 0.449
ENO1 C389 (UniProt P06733) -0.0554
BPNT1 C42 (UniProt O95861) 0.319
ZRANB2 C85 (UniProt O95218) 0.153
UniProt O94953_C971 0.257
KIF4A C269 (UniProt O95239) 0.159
UBE4B C1129 (UniProt O95155) 0.0171
ALDOA C290 (UniProt P04075) 0.0926
PRPF6 C739 (UniProt O94906) 0.148
UniProt O95232_C40 0.238
ATG7 C524 (UniProt O95352) -0.154
USP19 C833 (UniProt O94966) 0.0307
PCNT C974 (UniProt O95613) -0.0561
DDHD2 C470 (UniProt O94830) 0.175
PGK1 C316 (UniProt P00558) 0.000852
UniProt P07437_C211 0.195
LDHA C131 (UniProt P00338) -0.0391
UniProt O95382_C16 0.284
GPX1 C156 (UniProt P07203) 0.202
BCL10 C119 (UniProt O95999) 0.317
CAPN1 C115 (UniProt P07384) 0.486
GNAI2 C112 (UniProt P04899) 0.0232
GAPDH C156 (UniProt P04406) 0.14
UniProt P07437_C12 0.0311
GLUD1 C376 (UniProt P00367) 0.107
SEC24D C824 (UniProt O94855) 0.181
PAPSS2 C155 (UniProt O95340) -0.115

Reprinted at random: 2 entries already listed, in no set order.
log2 ratio of iodoacetamide-alkyne labeling, inactive:
UniProt O95696_C937 0.0297
ACSL3 C429 (UniProt O95573) 0.118
